{"source": "PubChem BioAssay AID504467", "about": "(National Center for Advancing Translational Sciences (NCATS), 2011)", "note": "Screen size: about 330,000 compounds; about 7,700 (2.3%) were called active. The inconclusive results got no clear call from the source; some entries with a clear call stand among them for comparison. Calls come from the whole dose curve; as a rule, active = well fitted inhibition curve with a large enough effect; inconclusive = small, poorly fitted or top-dose-only effect, or effect the other way; inactive = flat fitted curve, though single readings scatter. Potencies beside an inconclusive call are fits to weak or partial responses and may not hold up. % is set by controls: 0 for no effect and ±100 for the full control effect; potency is the fitted concentration of half-maximal effect."}
{"experiment": "qHTS screen for small molecules that inhibit ELG1-dependent DNA repair in human embryonic kidney (HEK293T) cells expressing luciferase-tagged ELG1; note: nearly all actives have a fitted effect of over 55% in size", "conditions": "HEK293T ELG1-luciferase reporter, luminescence, 16 h, DNA damage induced by 5-fluorouridine; activity change, negative = inhibition: at 46.1 µM (top of the series)", "summary_of_the_method": "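HEK293T cells expressing luciferase-tagged ELG1 (2,000/well) received 5-Fluorouridine plus compound or DMSO for 16 hr at 37 °C. Luciferase was read by ONE-Glo luminescence after 30 min at room temperature.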"}
{"smiles": "Cc1cc(/C([O-])=C(/C(=S)Nc2ccccc2)[n+]2ccccc2)c(C)n1-c1ccccc1", "Potency": "inconclusive: 9.2 µM [activator, partial curve]"}
{"smiles": "c1ccc(-c2nnc(SCc3nc4ccccc4[nH]3)n2Cc2ccco2)cc1", "Potency": "active: 20.6 µM"}
{"smiles": "O=C(CCNC(=O)c1ccc(Cl)cc1)NCCC1=CCCCC1", "Potency": "inconclusive: 25.9 µM [activator, single point]"}
{"smiles": "COc1ccc(N(CC(=O)Nc2ccc(Cl)cc2)S(=O)(=O)c2c(C)n[nH]c2C)cc1", "activity change, negative = inhibition": "inactive: -0.969%"}
{"smiles": "CCOc1ccc(NC(=O)CN(C)C(=O)c2c(-c3c(F)cccc3Cl)noc2C)cc1OCC", "Potency": "inconclusive: 16.4 µM [inhibitor, single point]"}
{"smiles": "COc1ccc2c(c1OC)C(=O)N(c1ccc(C)c(C)c1)C2=O", "Potency": "inconclusive: 18.4 µM [activator, partial curve]"}
{"smiles": "CCC(CO)Oc1cc(NCc2ccccc2)c2ncn(C3CCCC3)c2c1", "note": "(configuration not stated)", "Potency": "inconclusive: 25.9 µM [inhibitor, partial curve, poor fit]"}
{"smiles": "CCn1c(=O)c(CCC(=O)N2CCN(c3ccccn3)CC2)c(C)c2c(C)nn(-c3ccccc3)c21", "Potency": "active: 16.4 µM"}
{"smiles": "CC(C)N(C(=O)CSc1n[nH]c(=O)n1CCc1ccccc1)C(C)C", "activity change, negative = inhibition": "inactive: -10.3%"}
{"smiles": "O=C(c1cccc(-c2ccc(O)cc2)c1)N1CCOCC1", "Potency": "inconclusive: 23.1 µM [activator, single point]"}
{"smiles": "COc1ccc(Cl)c2sc(NC(=O)C3=COCCO3)nc12", "Potency": "inconclusive: 25.9 µM [activator, single point]"}
{"smiles": "Cc1ccccc1OCCC(=O)NNC(=O)COc1cccc(F)c1", "Potency": "inconclusive: 18.3 µM [activator, partial curve, poor fit]"}
{"smiles": "COc1ccc(NC(=S)NC2CCCCC2)cn1", "Potency": "inconclusive: 16.4 µM [activator, partial curve]"}
{"smiles": "Oc1ccc(-c2nccc(-c3ccccn3)n2)cc1", "Potency": "inconclusive: 16.4 µM [activator, partial curve]"}
{"smiles": "O=C(N1CCC(n2nc(-c3ccccc3)oc2=O)CC1)C1(c2ccccc2)CC1", "Potency": "inconclusive: 9.2 µM [inhibitor, partial curve]"}
{"smiles": "O=C1c2ccccc2C(=O)N1CCCc1cn(C[C@H]2CC[C@@H]([C@@H]3CC[C@H](Cn4cc(CCCN5C(=O)c6ccccc6C5=O)nn4)O3)O2)nn1", "Potency": "inconclusive: 7.3 µM [inhibitor, single point]"}
{"smiles": "COc1ccc2c(c1)CCc1c(C(=O)N(C)c3ccccc3)noc1-2", "Potency": "inconclusive: 9.2 µM [activator, partial curve]"}
{"smiles": "O=C1CN(C(=O)/C=C/c2ccccc2F)c2ccccc2N1", "Potency": "inconclusive: 29.1 µM [activator, single point]"}
{"smiles": "CC(C)C[C@H](N)c1cn([C@@H](CCCCN)C(=O)N2CCNCC2)nn1", "activity change, negative = inhibition": "inactive: 16.6%"}
{"smiles": "O=C(Nc1cccnc1)c1ccc(NS(=O)(=O)c2cccc([N+](=O)[O-])c2)cc1", "activity change, negative = inhibition": "inactive: 9.91%"}
{"smiles": "Cc1ccccc1N1C(=O)[C@@H]2Cc3ccccc3CN2C1=O", "activity change, negative = inhibition": "inactive: 6.5%"}
{"smiles": "CC(/C=N/NC(=O)c1cc(-c2ccc3ccccc3c2)n[nH]1)=C\\c1ccco1", "Potency": "inconclusive: 29.1 µM [inhibitor, single point]"}
{"smiles": "CCOc1ccccc1C1CC(c2ccc(F)cc2)Nc2nc(N)nn21", "note": "(configuration not stated)", "activity change, negative = inhibition": "inactive: 0.111%"}
{"smiles": "COc1ccc(OC)c(N(CC(=O)NC2CC2)S(=O)(=O)c2ccc(C)cc2)c1", "Potency": "inconclusive: 20.6 µM [inhibitor, partial curve, poor fit]"}
{"smiles": "COc1cc(NC(=O)c2cccs2)c(OC)cc1NC(=O)CCC(=O)Nc1ccc2ncccc2c1", "Potency": "active: 14.6 µM"}
{"smiles": "COc1ccc(S(=O)(=O)N2CCOCC2)cc1NC(=O)CSc1ncnc2ccccc12", "Potency": "inconclusive: 32.6 µM [inhibitor, partial curve, poor fit]"}
{"smiles": "COc1ccc(C(=O)C2CCCN(Cc3nc4ccccc4nc3C)C2)cc1OC", "note": "(configuration not stated)", "Potency": "inconclusive: 25.9 µM [inhibitor, partial curve]"}
{"smiles": "Cc1cc(C)c2nc(NC(=O)C3CCCO3)sc2c1", "note": "(configuration not stated)", "Potency": "inconclusive: 10.3 µM [activator, partial curve]"}
{"smiles": "Cc1cc(C)nc(SCC(=O)NC(=O)c2ccccc2O)n1", "activity change, negative = inhibition": "inactive: 0%"}
{"smiles": "O=C(CSc1nnc(-c2cccs2)n1-c1ccccc1)c1ccc2c(c1)OCCO2", "activity change, negative = inhibition": "inactive: -6.75%"}
{"smiles": "CCOc1ccc(Cc2nnc(SCC(=O)c3ccc(OC)cc3)o2)cc1", "Potency": "inconclusive: 29.1 µM [inhibitor, single point]"}
{"smiles": "N=c1c(C(=O)NCc2ccco2)cc2c(=O)n3ccccc3nc2n1CCc1ccccc1", "activity change, negative = inhibition": "inactive: 0.847%"}
{"smiles": "CNC(=O)c1ccsc1NC(=O)c1ccc(Cl)s1", "Potency": "inconclusive: 25.9 µM [activator, partial curve, poor fit]"}
{"smiles": "O=C(N/N=C1/CCc2ccccc21)C1CC1", "Potency": "inconclusive: 23.1 µM [activator, single point]"}
{"smiles": "O=C(NCCc1ccc(Cl)cc1)C1CCN(S(=O)(=O)c2cccs2)CC1", "Potency": "inconclusive: 23.1 µM [inhibitor, partial curve, poor fit]"}
{"smiles": "CCN(C(=O)COC(=O)/C=C/c1cnc2ccccc2n1)c1ccccc1", "activity change, negative = inhibition": "inactive: -5.45%"}
{"smiles": "COc1cc(/C=N\\n2nnnc2N)ccc1OCc1ccc(F)cc1", "Potency": "inconclusive: 10.3 µM [activator, partial curve, poor fit]"}
{"smiles": "CCC(C)NC(=O)C(=O)NC1CCCC1", "note": "(configuration not stated)", "Potency": "inconclusive: 20.6 µM [activator, single point]"}
{"smiles": "Cn1c(N)c(C(=O)CSc2nn(-c3ccc(F)cc3)c(=S)s2)c(=O)n(C)c1=O", "Potency": "inconclusive: 9.2 µM [inhibitor, partial curve, poor fit]"}
{"smiles": "CC(=O)N1CCN(C(=O)c2cc(-c3ccc(C)o3)nc3ccccc23)CC1", "Potency": "inconclusive: 20.6 µM [activator, partial curve]"}
{"smiles": "CCOc1ccccc1NC(=O)C1CCCN(c2c(CC)c(C)nc3ncnn23)C1", "note": "(configuration not stated)", "Potency": "inconclusive: 25.9 µM [inhibitor, partial curve, poor fit]"}
{"smiles": "O=C(NCC(c1ccco1)N1CCc2ccccc2C1)c1ccc([N+](=O)[O-])cc1", "note": "(configuration not stated)", "Potency": "inconclusive: 25.9 µM [inhibitor, single point]"}
